Experimental findings from PMC3017119, “Structural Basis for the Recognition of Cellular mRNA Export Factor REF by Herpes Viral Proteins HSV-1 ICP27 and HVS ORF57” (PLoS Pathogens, 2011) are described below.

Protein sequences, listed by entry. Tags and fused reporters are not part of them. Residues count along the entry.
UniProt Q16629, residues 11-84: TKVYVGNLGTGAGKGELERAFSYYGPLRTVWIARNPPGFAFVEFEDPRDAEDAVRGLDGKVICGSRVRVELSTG

In experiment [1] the target is REF^54–155 (recombinant, for NMR) (murine) (UniProt Q9JJW6). In words: NMR titration; […]; 30°C; […], pH 6.2; both purified.
The target in a further experiment is 9G8 (UniProt Q16629). In words: NMR titration; both purified.

No constants are given. Whether binding was seen depends on the method and setting.

B1: KSHV ORF57^100–110 (peptide)
peptide: NRYGKKIKFGT
As to B1, in experiment [1], the binding result was “no binding (tested: >100000 µM)”.

B2: ICP27^103–112 (peptide)
peptide: SVWSRLGARR
For B2, the binding result with 9G8 is “no binding”.
